Test results published in paper doi:10.1101/2025.04.11.648320 (bioRxiv, 2025).
Results are given in words; binding and its absence hold for the method and conditions named. Binding seen in cells or lysates may run through a third protein. These calls come from enrichment with a bait or labelling near it, and not all partners need be listed.

Chains of the proteins cited; added tags and fusions are not shown. Lines headed by an entry give the natural chain unless they say otherwise; changes in a name come on top.
UniProt Q9SRH6: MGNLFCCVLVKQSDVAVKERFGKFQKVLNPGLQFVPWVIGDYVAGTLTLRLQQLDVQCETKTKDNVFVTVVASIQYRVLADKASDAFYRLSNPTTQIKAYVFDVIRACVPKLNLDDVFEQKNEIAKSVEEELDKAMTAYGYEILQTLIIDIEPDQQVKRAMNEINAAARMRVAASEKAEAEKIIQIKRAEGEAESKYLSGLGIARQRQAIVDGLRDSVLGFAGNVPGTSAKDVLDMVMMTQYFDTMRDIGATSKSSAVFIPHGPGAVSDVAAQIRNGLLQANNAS

Target: T1, BIR2, endogenous in Arabidopsis plants (Arabidopsis thaliana (endogenous in Arabidopsis plants)) (UniProt Q9LSI9)
T1 sequence: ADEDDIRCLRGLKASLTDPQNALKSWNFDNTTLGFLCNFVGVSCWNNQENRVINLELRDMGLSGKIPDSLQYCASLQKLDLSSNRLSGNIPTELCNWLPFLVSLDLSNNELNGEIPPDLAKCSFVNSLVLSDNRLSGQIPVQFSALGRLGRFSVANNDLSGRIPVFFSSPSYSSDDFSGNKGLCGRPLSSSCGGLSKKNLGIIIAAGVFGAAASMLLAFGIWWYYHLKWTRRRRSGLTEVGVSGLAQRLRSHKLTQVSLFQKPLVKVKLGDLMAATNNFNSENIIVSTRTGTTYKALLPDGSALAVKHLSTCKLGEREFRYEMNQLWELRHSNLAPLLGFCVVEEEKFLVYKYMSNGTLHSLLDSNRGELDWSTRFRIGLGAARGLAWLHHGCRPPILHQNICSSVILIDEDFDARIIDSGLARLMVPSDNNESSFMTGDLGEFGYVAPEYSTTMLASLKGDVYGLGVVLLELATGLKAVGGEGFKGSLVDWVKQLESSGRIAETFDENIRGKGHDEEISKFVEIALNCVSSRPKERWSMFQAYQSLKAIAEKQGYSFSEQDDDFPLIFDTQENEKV
Assay: affinity purification with mass spectrometry

Substance: HIR2, endogenous in Arabidopsis plants (from UniProt Q9SRH6)
- binding: binds
